Test results taken from publication PMC8684721.
Results are given in words; binding and its absence hold for the method and conditions named. In cells and extracts the contact can be indirect. Some binding calls cover weakened binding; strength is not graded here.

By UniProt entry, the sequences of proteins in these tests, tags left out.
UniProt P02340: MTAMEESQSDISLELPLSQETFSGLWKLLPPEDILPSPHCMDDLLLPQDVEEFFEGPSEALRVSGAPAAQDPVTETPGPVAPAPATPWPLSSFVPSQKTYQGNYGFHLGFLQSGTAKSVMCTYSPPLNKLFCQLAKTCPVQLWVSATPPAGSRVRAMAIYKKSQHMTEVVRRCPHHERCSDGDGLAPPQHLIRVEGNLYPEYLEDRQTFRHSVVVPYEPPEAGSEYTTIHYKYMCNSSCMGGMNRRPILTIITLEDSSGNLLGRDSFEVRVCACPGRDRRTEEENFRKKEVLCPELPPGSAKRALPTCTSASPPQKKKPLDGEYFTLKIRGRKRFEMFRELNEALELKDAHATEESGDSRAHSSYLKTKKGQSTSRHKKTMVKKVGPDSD

B1: F-box protein 9 (FBXO9) (protein, UniProt Q8BK06 1-437)
chain: MSAEAEEDCHSDADRVGDEGNESPAERDLQAQLQMFRAQWMFELTPGVGSSHGETRPCRAGRSSMLKAAADTKGRQELAKEEKARELFLQAVEEEQNGALYEAIKFYRRAMQLVPDIEFKITYTRSPDGDGVGSGYIEENEDASKMADLLSYFQQQLTLQESVLKLCQPELETSQTHISVLPMEVLMYIFRWVVSSDLDLRSLEQLSLVCRGFYICARDPEIWRLACLKVWGRSCMKLVPYASWREMFLERPRVRFDGVYISKTTYIRQGEQSLDGFYRAWHQVEYYRYMRFFPDGHVMMLTTPEEPPSIVPRLRTRNTRTDAILLGHYRLSQDADNQTKVFAVITKKKEEKPLDHKYRYFRRVPVQEADHSFHVGLQLCSSGHQRFNKLIWIHHSCHITYKATGETAVSAFEIDKMYTPLLFARVRSYTAFSERPL

How the values were obtained:
[1] = target: T1, F-box protein 9 (FBXO9) (mouse (endogenous in BMDM-derived osteoclasts; species of the cells not stated by the paper)) (UniProt Q8BK06); assay: co-IP; reciprocal co-IP from lysates of BMDMs-induced osteoclasts in NP40 buffer (10 mM Tris-HCl pH 8.0, 140 mM NaCl, 1.5 mM MgCl2, 0.5% Nonidet-P40, 20 mM dithiothreitol, 0.5% deoxycholate); FBXO9 or p53 antibody (2 ug/ml) for 4 h, Protein A/G beads overnight at 4 C; western blot with FBXO9 or p53 antibody; IgG as control
T1 sequence: B1 chain

[2] = target: p53 (mouse (endogenous in BMDM-derived osteoclasts; species of the cells not stated by the paper)) (UniProt P02340); assay: as above

Row | Molecule | binding [1] | binding [2]
1 | p53 (from UniProt P02340 1-390) | binds | 
2 | B1 |  | binds
